The exact form of at least one protein or probe is not confirmed. For some assays here: No signal at the amounts used counts as a negative. For some assays here: At least one verdict rests on a figure or table, not on a statement of the authors. For some assays here: Protein sequences can lack the tags named with them. For some assays here: Where cells or extracts were used, other partners may take part.

Protein sequences, listed by entry. Tags and fused reporters are not part of them. Lines headed by an entry give the natural chain unless they say otherwise; changes in a name come on top.
UniProt P52947: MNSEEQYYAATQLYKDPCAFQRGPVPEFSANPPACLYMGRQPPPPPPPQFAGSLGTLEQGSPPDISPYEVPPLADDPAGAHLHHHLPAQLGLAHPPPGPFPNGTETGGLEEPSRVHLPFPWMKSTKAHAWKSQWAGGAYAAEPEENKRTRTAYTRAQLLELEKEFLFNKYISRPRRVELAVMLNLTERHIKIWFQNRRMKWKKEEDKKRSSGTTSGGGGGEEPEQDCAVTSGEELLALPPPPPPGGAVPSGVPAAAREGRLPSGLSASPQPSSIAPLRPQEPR

The test system of data set [1] is PBX long isoforms (PBX1a/PBX2/PBX3a) + PREP1 + PDX1. Kind of data set: EMSA; competition. The conditions noted are these: PA1a probe, and as competitor of PA1b probe; 2 ug nuclear extract or 1 ul ivt protein, 0.1 ng 32P ds oligo, 1 ug poly(dI-dC); antiserum preincubation 15 min at room temperature; protein in an extract; label: 32P (Klenow) as probe, unlabeled as competitor. (In general: In EMSA bound probe runs differently from free probe, usually more slowly.)

Data set [2] deals with PBX long isoforms (PBX1a/PBX2/PBX3a) + PREP1. The data set is described as follows: EMSA; competition. The conditions noted are these: PA1a probe, and as competitor of PA1b probe; 2 ug nuclear extract or 1 ul ivt protein, 0.1 ng 32P ds oligo, 1 ug poly(dI-dC); antiserum preincubation 15 min at room temperature; protein in an extract; label: 32P (Klenow) as probe, unlabeled as competitor.

Data set [3] concerns PBX long isoforms (PBX1a/PBX2/PBX3a) + PREP1 + PDX1. Kind of data set: EMSA supershift. The conditions noted are these: complex T', PDX1, PBX long and PREP1 antibodies; 2 ug nuclear extract or 1 ul ivt protein, 0.1 ng 32P ds oligo, 1 ug poly(dI-dC); antiserum preincubation 15 min at room temperature; protein in an extract; label: 32P (Klenow).
The test system of data set [4] is PBX long isoforms (PBX1a/PBX2/PBX3a) + PREP1. Kind of data set: EMSA supershift. The conditions noted are these: 2 ug nuclear extract or 1 ul ivt protein, 0.1 ng 32P ds oligo, 1 ug poly(dI-dC), antiserum preincubation 15 min at room temperature, protein in an extract, label: 32P (Klenow).
For the next data set, the target named is T1, PREP1 (UniProt P55347).
T1 sequence (looked up, limits assumed): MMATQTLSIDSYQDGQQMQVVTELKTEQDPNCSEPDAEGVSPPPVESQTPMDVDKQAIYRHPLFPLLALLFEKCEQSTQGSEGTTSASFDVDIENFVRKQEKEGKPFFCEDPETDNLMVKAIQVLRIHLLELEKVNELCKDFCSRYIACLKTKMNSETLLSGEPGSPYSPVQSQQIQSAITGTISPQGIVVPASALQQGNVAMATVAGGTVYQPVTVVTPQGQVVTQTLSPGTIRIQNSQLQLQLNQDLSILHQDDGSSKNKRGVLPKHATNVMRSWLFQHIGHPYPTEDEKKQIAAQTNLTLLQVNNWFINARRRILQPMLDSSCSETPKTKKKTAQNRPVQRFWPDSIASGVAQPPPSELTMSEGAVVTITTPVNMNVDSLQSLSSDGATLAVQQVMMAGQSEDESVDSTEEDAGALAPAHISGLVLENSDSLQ
The data set is described as follows: EMSA. As to conditions: tested alone; 2 ug nuclear extract or 1 ul ivt protein, 0.1 ng 32P ds oligo, 1 ug poly(dI-dC); antiserum preincubation 15 min at room temperature; protein translated in vitro; label: 32P (Klenow).

A further data set addresses T2, PBX1a (long isoform) (UniProt P41778).
T2 sequence (looked up, limits assumed): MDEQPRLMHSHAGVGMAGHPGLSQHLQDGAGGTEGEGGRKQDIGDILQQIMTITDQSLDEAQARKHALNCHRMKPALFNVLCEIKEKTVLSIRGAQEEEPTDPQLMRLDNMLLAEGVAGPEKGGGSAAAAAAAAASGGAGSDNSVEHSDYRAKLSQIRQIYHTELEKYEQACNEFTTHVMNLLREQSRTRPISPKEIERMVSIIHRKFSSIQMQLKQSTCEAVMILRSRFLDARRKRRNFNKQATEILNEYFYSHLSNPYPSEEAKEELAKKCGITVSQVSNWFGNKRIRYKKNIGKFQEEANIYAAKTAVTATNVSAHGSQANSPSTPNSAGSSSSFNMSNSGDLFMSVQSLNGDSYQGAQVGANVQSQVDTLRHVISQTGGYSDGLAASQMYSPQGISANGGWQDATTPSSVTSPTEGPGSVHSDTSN
Kind of data set: EMSA. As to conditions: tested alone; 2 ug nuclear extract or 1 ul ivt protein, 0.1 ng 32P ds oligo, 1 ug poly(dI-dC); antiserum preincubation 15 min at room temperature; protein translated in vitro; label: 32P (Klenow).

The target of a further data set is PDX1 (STF-1) (UniProt P52947). Kind of data set: EMSA. As to conditions: 2 ug nuclear extract or 1 ul ivt protein, 0.1 ng 32P ds oligo, 1 ug poly(dI-dC), antiserum preincubation 15 min at room temperature, recombinant protein.
In data set [5] the test system is PDX1. Kind of data set: competition with a labelled probe. The conditions noted are these: 10 ng unlabeled, PC3b probe; 2 ug nuclear extract or 1 ul ivt protein, 0.1 ng 32P ds oligo, 1 ug poly(dI-dC); antiserum preincubation 15 min at room …; protein in an extract; label: unlabeled competitor.
The subject of data set [6] is PBX long isoforms (PBX1a/PBX2/PBX3a) + PREP1. Kind of data set: competition with a labelled probe. As to conditions: 10 ng (100-fold) unlabeled, 2 ug nuclear extract or 1 ul ivt protein, 0.1 ng 32P ds oligo, 1 ug poly(dI-dC), antiserum preincubation 15 min at room temperature, protein in an extract, label: unlabeled competitor.
Data set [7] deals with PDX1. Kind of data set: EMSA. As to conditions: 2 ug nuclear extract or 1 ul ivt protein, 0.1 ng 32P ds oligo, 1 ug poly(dI-dC); antiserum preincubation 15 min at room temperature; protein in an extract; label: 32P (Klenow) as probe, unlabeled as competitor.
Data set [8] has as its system PBX long isoforms (PBX1a/PBX2/PBX3a) + PREP1 + PDX1. The data set is described as follows: EMSA. As to conditions: T and T' complexes never detected; 2 ug nuclear extract or 1 ul ivt protein, 0.1 ng 32P ds oligo, 1 ug poly(dI-dC); antiserum preincubation 15 min at room temperature; protein in an extract; label: 32P (Klenow).
The test system of data set [9] is PDX1. Kind of data set: EMSA supershift. The conditions noted are these: complex lost with PDX1 antibody, competed by PC3b; 2 ug nuclear extract or 1 ul ivt protein, 0.1 ng 32P ds oligo, 1 ug poly(dI-dC); antiserum preincubation 15 min at room temperature; protein in an extract; label: 32P (Klenow).

Regarding “GATCTAATTTTGTTGTACCATGATATCG (double strand) [PA1a]”, the binding result in data set [1] and in data set [2] was “no binding” in each case.

Regarding “GATCGCATCACGATCAATCACAGCGCT (double strand) [PA1b]”, the binding result in data set [3] is recorded as “binds”; in data set [4] (complex L, blocked by PBX long and PREP1 antibodies) it was “binds”; with PREP1, “no binding”; in the data set with PBX1a (long isoform) it was “no binding”; in the data set with PDX1 (STF-1) (without PBX and PREP1, label: 32P (Klenow)), “no binding”.

With “GATCTTGACCGCATGATAAGC (double strand) [PC1b]”, the binding result in data set [4] is recorded as “binds”.

In the case of “GATCTTCTTTGATTGATTTTGC (double strand) [UE-A]”, the values for the binding result (in the data set with PDX1 [5]; in data set [6] (PA1b or PA2b probe)) were “no binding” and “binds”, respectively.

“GATCGGGGTCTAAACGGTGCAG (double strand) [PC3a]”: the binding result with PDX1 (STF-1) (label: 32P (Klenow) as probe, unlabeled as competitor) was “no binding”; with PDX1 [7], “no binding”.

Regarding “GATCTGGCAGCTGTCAATCATTTC (double strand) [PA2b]”, the binding result in data set [4] (complex L, competed by PA2b, PA1b, UE-A) was “binds”; in data set [8] it was “no binding”.

In the case of “GATCTAGCTCTTAATTGTGGTT (double strand) [PC3b]”, the binding result with PDX1 [9] was “binds”.

With “GATCTTCTTTCCTTCCTTTTGC (double strand) [UE-Amut]”, the binding result (with PDX1 [5]; in [6] (PA1b probe)) was “no binding” each time.
